The source of these data is patent publication US10399931B2, “Octahydroanthracene compound, preparation method and application thereof” (SHANDONG XINHUA PHARMACEUTICAL CO., LTD., priority 2016, dated 2019).

By IC50 is commonly meant the concentration that inhibits the measured activity by half.

Experiment [1] concerns Human cutaneous T-cell lymphoma Hut102 cells. The experiment is described as follows: MTT assay, proliferation of human cutaneous T-cell lymphoma Hut102 cells. To be noted: 10 μM, Mean ± SE. The experiment is classed as cell-based. Here is the method: (§1) The survival rate of cells was determined by MTT assay, which is based on the metabolic reduction of 3-(4,5-dimethyl-2thiahiazoyl)-3,5-di-phenyl-tetrazolium bromide (MTT) by viable cells. MTT is a yellow compound, a dye that accepts hydrogen ion, which can act on the respiratory chain in the mitochondria of viable cells. Under the action of succinate dehydrogenase and cytochrome C, the tetrazolium ring was cleaved to form blue Formazan crystals, and the amount of Formazan crystals generated was only proportional to the number of the viable cells. The enzymes disappeared in dead cells, so Formazan crystals could not be dissolved in MTT solution containing 20% sodium dodecyl sulfate (pH 4.7).
(§2) The cells in the logarithmic growth phase were selected and adjusted to an appropriate cell density, seeded in a 96-well plate, 100 μl/well, and cultured in a 37° C., 5% CO2 incubator. The cells were allowed to adhere overnight, then the culture medium was replaced and the drug was added to cultivate for 48 h. A blank control group, a drug administration group and a positive control group were set, with four repeats in each group.
(§3) After 48 h of drug treatment, the cells were incubated with 0.25 mg/ml MTT at 37° C. for 3-4 h, and 100 μl of dimethyl sulfoxide (DMSO) was added to each well after aspirating the culture solution.

For experiment [2], the system named is Human leukemia HL60 cells. The experiment is described as follows: MTT assay, proliferation of human leukemia HL60 cells. The experiment is classed as cell-based. To be noted: for Inhibitive rate (%) against HL60 cells: Mean ± SE. How it is done:
as §1, §2, §3
In general terms: Tetrazolium dyes change colour on reduction, which living cells bring about.

SMILES strings stand for the structures.

For the molecule `O=C(CCCCCCC(=O)Nc1ccccc1)NO` [SAHA, reference compound], the “Inhibitive rate (%) against Hut102 cells” value in experiment [1] is 61.60 ± 0.46 %. For the same molecule, the “Inhibitive rate (%) against HL60 cells” value in experiment [2] (0.01 μmol/L) stood at 23.23 ± 1.48 %; in experiment [2] (0.1 μmol/L), 74.97 ± 1.95 %; in experiment [2] (1 μmol/L), 74.48 ± 0.44 %; in experiment [2] (10 μM, 48 h) it was 66.86 ± 0.21 %; in experiment [2] (10 μmol/L (rescreening)), 75.46 ± 1.27 %. Moreover, the IC50 in experiment [2] (MTT, 48 h, read-out: IC50 against HL60 cells) worked out at 690 ± 160 nM.
